## Screening data, single-dose tests

Chains of the proteins cited; added tags and fusions are not shown. Residues count along the entry.
UniProt P9WNZ1, whole entry: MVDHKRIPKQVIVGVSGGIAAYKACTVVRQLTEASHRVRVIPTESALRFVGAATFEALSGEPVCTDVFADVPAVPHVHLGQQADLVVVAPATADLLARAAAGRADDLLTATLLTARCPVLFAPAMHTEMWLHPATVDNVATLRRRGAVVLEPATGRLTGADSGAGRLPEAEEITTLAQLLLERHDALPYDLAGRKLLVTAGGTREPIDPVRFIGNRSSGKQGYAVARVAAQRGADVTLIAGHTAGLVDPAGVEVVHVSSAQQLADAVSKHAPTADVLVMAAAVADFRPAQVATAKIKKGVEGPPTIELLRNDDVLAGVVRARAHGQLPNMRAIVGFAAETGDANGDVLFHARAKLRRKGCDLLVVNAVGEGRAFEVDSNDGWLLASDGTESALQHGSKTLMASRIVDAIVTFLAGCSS
UniProt P9WFT3, whole entry: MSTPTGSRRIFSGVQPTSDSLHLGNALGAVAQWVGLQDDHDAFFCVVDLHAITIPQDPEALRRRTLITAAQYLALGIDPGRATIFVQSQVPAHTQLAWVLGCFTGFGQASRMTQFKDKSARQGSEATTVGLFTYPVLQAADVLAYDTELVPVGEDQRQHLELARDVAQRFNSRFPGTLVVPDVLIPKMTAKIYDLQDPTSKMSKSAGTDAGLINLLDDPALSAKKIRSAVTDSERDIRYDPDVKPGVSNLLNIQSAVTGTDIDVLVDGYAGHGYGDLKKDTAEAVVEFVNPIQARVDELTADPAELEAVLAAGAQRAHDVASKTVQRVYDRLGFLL
UniProt P9WPC5, whole entry: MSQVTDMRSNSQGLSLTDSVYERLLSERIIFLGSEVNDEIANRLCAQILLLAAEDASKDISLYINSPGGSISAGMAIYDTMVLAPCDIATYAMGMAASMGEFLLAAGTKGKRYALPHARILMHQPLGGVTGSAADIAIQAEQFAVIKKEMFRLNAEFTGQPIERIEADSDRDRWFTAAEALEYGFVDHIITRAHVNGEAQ
UniProt P9WPC3, whole entry partner: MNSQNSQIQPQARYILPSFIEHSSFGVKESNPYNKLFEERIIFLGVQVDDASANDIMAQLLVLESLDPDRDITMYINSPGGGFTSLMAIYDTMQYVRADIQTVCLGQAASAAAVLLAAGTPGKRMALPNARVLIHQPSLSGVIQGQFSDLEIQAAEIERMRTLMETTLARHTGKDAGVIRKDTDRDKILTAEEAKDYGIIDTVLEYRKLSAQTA
UniProt A4I591, 1-473: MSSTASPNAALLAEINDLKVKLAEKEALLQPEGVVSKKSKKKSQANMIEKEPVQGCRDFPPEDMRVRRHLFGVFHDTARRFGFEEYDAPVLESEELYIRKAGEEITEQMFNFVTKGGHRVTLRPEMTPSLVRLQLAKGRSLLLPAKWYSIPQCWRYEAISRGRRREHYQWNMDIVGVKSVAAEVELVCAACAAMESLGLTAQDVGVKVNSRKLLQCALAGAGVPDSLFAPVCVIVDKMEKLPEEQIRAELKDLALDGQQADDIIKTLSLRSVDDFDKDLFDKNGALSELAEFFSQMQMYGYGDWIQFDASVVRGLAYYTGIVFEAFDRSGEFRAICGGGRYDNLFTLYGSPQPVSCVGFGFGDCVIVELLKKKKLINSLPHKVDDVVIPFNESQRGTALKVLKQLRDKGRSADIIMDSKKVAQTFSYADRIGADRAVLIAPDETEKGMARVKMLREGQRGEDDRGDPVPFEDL
UniProt Q4DA54, 1-478: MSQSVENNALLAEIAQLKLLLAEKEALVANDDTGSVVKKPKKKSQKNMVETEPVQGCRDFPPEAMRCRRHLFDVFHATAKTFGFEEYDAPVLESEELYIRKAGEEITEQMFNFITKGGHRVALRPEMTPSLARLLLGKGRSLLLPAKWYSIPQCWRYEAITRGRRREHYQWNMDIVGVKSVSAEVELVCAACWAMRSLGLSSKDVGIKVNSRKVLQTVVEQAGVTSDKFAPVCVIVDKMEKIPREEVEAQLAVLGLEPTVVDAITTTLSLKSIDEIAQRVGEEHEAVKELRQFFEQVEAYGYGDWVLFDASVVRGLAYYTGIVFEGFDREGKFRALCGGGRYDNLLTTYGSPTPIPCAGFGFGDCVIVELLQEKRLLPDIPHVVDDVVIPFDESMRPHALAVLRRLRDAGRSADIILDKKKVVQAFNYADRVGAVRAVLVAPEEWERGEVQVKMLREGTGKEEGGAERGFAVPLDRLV

CoaBC: 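Coenzyme A biosynthesis protein CoaBC, Mycobacterium tuberculosis (UniProt P9WNZ1). Enzyme assay of CoaBC with a phosphate dye (Biomol Green) read at 650 nm. Concentration: 30 µM. Higher reads as stronger inhibition, judged from the few compounds that gave an IC50. Most strong results did not repeat in a second test. Of about 67,000 compounds tested this way, about 40 (0.06%) reached 50% or more in at least one test.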
MtTrpRS: 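Enzyme assay of tryptophanyl-tRNA synthetase; the read-out is not stated. Target: Tryptophan-tRNA ligase, Mycobacterium tuberculosis (UniProt P9WFT3). Compounds at 10 µM. Direction is not recorded; retested compounds ran higher, which suggests that high means inhibition. About 65,000 compounds were tested under these conditions; 0.098% (about 64) showed 50% or more at least once.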
ClpP1P2: 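ClpP1P2, Mycobacterium tuberculosis (UniProt P9WPC5 and UniProt P9WPC3). Protease assay of ClpP1P2, read by the AMC dye that it sets free. Tested at 50 µM. Higher reads as stronger inhibition, judged from the few compounds that gave an IC50. Most other retested compounds had strongly negative values. Size under these conditions: about 69,000 compounds, about 10 of them at 50% or above in at least one test.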
LiHisRS: 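Enzyme assay of histidyl-tRNA synthetase; the read-out is not stated. Target: Histidine-tRNA ligase, Leishmania infantum (UniProt A4I591). Compounds at 30 µM. The record gives no direction; compounds that gave an IC50 in retests scored well above the rest, so higher reads as stronger inhibition. The assay is labelled LdHisRS but filed under L. infantum. Size under these conditions: about 69,000 compounds, about 410 of them at 50% or above in at least one test.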
TcHisRS: 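Histidine-tRNA ligase, Trypanosoma cruzi CL Brener (UniProt Q4DA54). Enzyme assay of histidyl-tRNA synthetase; the read-out is not stated. Concentration: 30 µM. Direction is inferred from retests: higher values go with stronger inhibition. Size under these conditions: about 69,000 compounds, about 31 of them at 50% or above in at least one test.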

Each number is a percent effect as filed. How 0% and 100% were set is not recorded. Most values in the screen are low, and negative values occur. This is an unselected part of the compounds tested. Two or more numbers in one place are separate tests of the same structure; such repeats can differ widely. A dash means the value is not listed here; it may have been measured.

SMILES | CoaBC | MtTrpRS | ClpP1P2 | LiHisRS | TcHisRS
NCCC(=O)N1CCC2(CC1)CN(C(=O)c1ccc(Cl)cc1)CCO2 | -3.158 | 1.296 | -13.96 | 34.48 | 11.24
CCn1ncnc1C(C)Nc1cc(C2CCNCC2)nc(C)n1 (configuration not stated) | 3.137 | -2.907 | 17.13 | 10.84 | 6.468
O=C(CC1CC1)NCc1cc(=O)n2c(n1)CN(Cc1ccoc1)CCC2 | -10.11 | -3.207 | -1.521 | 9.524 | 4.132
CN(CCc1cccs1)C(=O)Nc1ccc2c(c1)C(=O)N(C)CC2 | 2.457 | -3.809 | 2.615 | 8.73 | 5.882
Cc1cc(C(F)(F)F)cc(N2CCC3(CCC(=O)N(CCO)C3)CC2)n1 | 7.042 | -4.376 | -13.27 | 15.38 | 7.303
c1cc2ccc(N3CCN(Cc4ccc5c(c4)OCO5)CC3)nc2[nH]1 | 15.73 | -5.509 | -3.917 | 13.16 | 2.793
Cc1ccc(CN2CC3(CCN(C(=O)c4cccnc4)C3)C2)o1 | -1.235 | - | 9.453 | 8.182 | 6.349
COCc1noc(Cc2c(C)nn(C)c2C)n1 | 0.2358 | -1.54 | -4.453 | 12.09 | 2.062
Cn1ccnc1CN1CCN(c2ccc(C#N)cc2F)CC1 | 5.059 | 2.43 | 4.007 | 21.54 | 1.149
COCC1CC2(CCN(C(=O)c3ccc(C)nc3)CC2)CO1 (configuration not stated) | 3.268 | -7.448 | -7.36 | 24.56 | 6.557
CCc1ccc(CN(C/C=C/c2ccccc2)CCOC)nc1 | 16.2 | 0.5038 | -14.81 | 22.86 | 3.061
CC(=O)Nc1ncc(S(=O)(=O)Nc2ccc(F)cc2)s1 | 6.326 | 9.246 | 8.993 | 13.59 | 1.639
NS(=O)(=O)CC1CCCN(C(=O)CCCC2CCCC2)C1 (configuration not stated) | 3.544 | 1.704 | -12.9 | 15.79 | 0
Cc1nccn1-c1nccnc1C1CCN(Cc2ccc(F)cc2)CC1 | 15.8 | 1.938 | 8.111 | 10.95 | -0.5464
Cc1ccc(S(=O)(=O)NC(=O)COc2cccc(C#N)c2)c(C)c1 | -0.9823 | 3.838 | 9.282 | 0.8772 | 5.172
CCc1ccc(CN(C)Cc2nc(COc3ccccc3)no2)nc1 | 0 | -3.254 | -14.88 | 4.918 | 6.977
Cc1cc(NC(=O)NCC2CCOC2)no1 (configuration not stated) | 1.695 | -6.841 | -8.205 | 20.27 | 0.3774
COCC(NC(=O)c1cccnc1)c1cccc(C(F)(F)F)c1 (configuration not stated) | 1.523 | 0.9684 | -11.82 | 5.882 | 2.242
Cc1nn(C)c(C)c1CN1CCN(CC2(O)CCCN(C)C2)CC1 (configuration not stated) | 5.19 | 4.746 | -8.841 | 17.5 | 7.453
CN(Cc1ccccc1)C1(C(=O)O)Cc2ccccc2C1 | 5.357 | 1.421 | -22.3 | 14.56 | 4.564
Cc1ccc(CN2CC[C@H]3C(=O)N(Cc4cccnc4)CCO[C@H]3C2)o1 | 5.33 | -2.881 | -7.261 | 5.882 | 2.956
CS(=O)(=O)N1CCC(c2cncc(Cl)n2)CC1 | -12.39 | 14.18 | -11.12 | -2.837 | 1.55
Cc1ccc(-c2ccc(Cl)nn2)cc1S(=O)(=O)N1CCOCC1 | -2.427 | -0.6274 | -5.191 | 2.41 | -2.762
Cc1cnn(CC2CCCN2C(=O)c2cn(C)c3ccccc23)c1 (configuration not stated) | 4.7 | 0 | -39.49 | 13.27 | 4.373
COC(=O)CCN1CCC(NC(=O)OC(C)(C)C)CC1 | 6.263 | 1.008 | -8.688 | 0 | 6.122
c1cnc(N2CC3(CCN(C4CCOCC4)CC3)c3ccccc32)nc1 | - | 0.2907 | -8.903 | 5.128 | 6.135
COc1ccc(CNC(=O)NCc2ccc(C)cc2)cn1 | - | 0.7224 | 9.92 | 11.43 | 11.69
COc1ccccc1C(=O)N1CCOCC1c1c(C)n[nH]c1C (configuration not stated) | 2.895 | -4.011 | -14.42 | 13.89 | 2.639
Cc1ccc(OC2(C(=O)O)CCN(C(=O)c3ccc(F)cc3)CC2)cn1 | -6.579 | -0.4177 | -7.983 | 11.43 | -0.8264
COc1ccccc1N1CCN(CC(=O)NC(C)c2ccco2)CC1 (configuration not stated) | 3.175 & 34.33 | 1.72 | -8.741 | 12.39 | 1.754
Cc1ccc(CN2CC(C(=O)Nc3ccccc3)C3(CCOCC3)C2)s1 (configuration not stated) | 5.711 | 5.352 | -3.888 | 22.64 | -1.622
CCC1CCCN(CC(=O)Nc2oc(C)c3c(C)n[nH]c(=O)c23)C1 (configuration not stated) | 14.11 | -3.462 | -22.73 | 5.66 | 2.5
CC(C)n1cnnc1CN(C)Cc1cnc(-c2ccco2)nc1 | 4.121 | -1.5 | -3.603 | 18.75 | 9.574
COCC(=O)N1CCN(Cc2cc(-c3ccncc3)nn2C)CC1 | 1.716 | - | 10.85 | 19.79 | 6.383
CCCc1ccc(OC23CCCN(CC2)C3)c(OC)c1 (configuration not stated) | -0.7229 | 4.595 | -9.807 | 49.45 | 31.68
CNS(=O)(=O)c1ccc(CNC(=O)c2ccccn2)cc1 | 8.585 | -7.346 | 0.6737 | 11.29 | 4.545

The last 4 entries again:

CC(C)n1cnnc1CN(C)Cc1cnc(-c2ccco2)nc1 gave CoaBC: 4.121%; MtTrpRS: -1.5%; ClpP1P2: -3.603%; LiHisRS: 18.75%; TcHisRS: 9.574%.
COCC(=O)N1CCN(Cc2cc(-c3ccncc3)nn2C)CC1 gave CoaBC: 1.716%; ClpP1P2: 10.85%; LiHisRS: 19.79%; TcHisRS: 6.383%.
CCCc1ccc(OC23CCCN(CC2)C3)c(OC)c1 (configuration not stated) gave CoaBC: -0.7229%; MtTrpRS: 4.595%; ClpP1P2: -9.807%; LiHisRS: 49.45%; TcHisRS: 31.68%.
CNS(=O)(=O)c1ccc(CNC(=O)c2ccccn2)cc1 gave CoaBC: 8.585%; MtTrpRS: -7.346%; ClpP1P2: 0.6737%; LiHisRS: 11.29%; TcHisRS: 4.545%.

Data taken from ChEMBL document CHEMBL3988442, “University of Dundee, Small-Polar-MMV Screening Library” (2021).